Test results: paper PMC9082862
These are yes or no findings as the source states them, for the method shown. Binding seen in cells or lysates may run through a third protein. Some results given as binding are weak or reduced against the parent protein; the word gives no strength. For part of these data: Sequences can lack the tags named with a protein. One block for each molecule: values may come before it.

By UniProt entry, the sequences of proteins in these tests, tags left out.
UniProt Q14145: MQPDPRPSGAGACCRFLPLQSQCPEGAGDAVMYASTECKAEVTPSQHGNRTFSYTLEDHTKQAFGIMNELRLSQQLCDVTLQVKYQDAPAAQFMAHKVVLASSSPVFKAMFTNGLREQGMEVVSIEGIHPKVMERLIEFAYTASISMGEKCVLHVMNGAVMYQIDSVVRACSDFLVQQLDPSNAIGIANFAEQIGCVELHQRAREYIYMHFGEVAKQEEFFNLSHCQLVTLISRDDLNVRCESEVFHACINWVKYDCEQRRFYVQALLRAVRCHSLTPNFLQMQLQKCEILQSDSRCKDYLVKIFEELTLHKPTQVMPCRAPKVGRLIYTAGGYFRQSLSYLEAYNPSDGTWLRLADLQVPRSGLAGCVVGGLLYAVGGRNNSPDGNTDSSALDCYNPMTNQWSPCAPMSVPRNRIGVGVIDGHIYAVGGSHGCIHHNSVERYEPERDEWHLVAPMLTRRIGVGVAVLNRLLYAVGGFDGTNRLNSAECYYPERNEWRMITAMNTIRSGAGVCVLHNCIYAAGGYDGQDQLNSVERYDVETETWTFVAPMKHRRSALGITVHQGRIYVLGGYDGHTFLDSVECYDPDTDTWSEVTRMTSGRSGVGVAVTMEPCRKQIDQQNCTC

How the values were obtained:
Flag-TRIM15 = target: T1, Flag-TRIM15 (UniProt Q9C019); test: co-IP; HEK293 cells expressing Flag-TRIM15 and HA-Keap1; reciprocal; IP lysis buffer 20 mM Tris pH 7.5, 150 mM NaCl, 1% TritonX-100, 1 mM EDTA; protein A/G agarose beads overnight
T1 sequence: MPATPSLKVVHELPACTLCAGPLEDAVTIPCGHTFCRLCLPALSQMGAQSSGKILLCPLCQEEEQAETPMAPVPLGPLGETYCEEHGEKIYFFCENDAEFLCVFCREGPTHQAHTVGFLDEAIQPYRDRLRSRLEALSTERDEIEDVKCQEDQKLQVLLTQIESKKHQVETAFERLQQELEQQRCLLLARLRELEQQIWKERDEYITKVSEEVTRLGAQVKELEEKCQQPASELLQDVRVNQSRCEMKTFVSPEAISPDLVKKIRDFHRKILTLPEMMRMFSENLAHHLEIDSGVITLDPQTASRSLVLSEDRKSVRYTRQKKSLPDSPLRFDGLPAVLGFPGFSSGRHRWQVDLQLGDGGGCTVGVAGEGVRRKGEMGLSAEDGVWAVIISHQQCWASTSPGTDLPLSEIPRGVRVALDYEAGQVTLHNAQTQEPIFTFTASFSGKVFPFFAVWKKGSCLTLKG

HA-Keap1 = HA-Keap1 (UniProt Q14145); test: as above
[1] = target: endogenous Keap1 (human (endogenous in H1299 and H1975)) (UniProt Q14145); test: co-IP; endogenous proteins in lysates of H1299 and H1975 cells; antibodies against TRIM15 and Keap1 or negative control IgG, protein A/G agarose beads overnight; IP lysis buffer 20 mM Tris pH 7.5, 150 mM NaCl, 1% TritonX-100, 1 mM EDTA

- binding (Flag-TRIM15): binds
Molecule: HA-Keap1 (from UniProt Q14145 1-624)

- binding (HA-Keap1): binds
B1: Flag-TRIM15 (protein, UniProt Q9C019 1-465)
chain: MPATPSLKVVHELPACTLCAGPLEDAVTIPCGHTFCRLCLPALSQMGAQSSGKILLCPLCQEEEQAETPMAPVPLGPLGETYCEEHGEKIYFFCENDAEFLCVFCREGPTHQAHTVGFLDEAIQPYRDRLRSRLEALSTERDEIEDVKCQEDQKLQVLLTQIESKKHQVETAFERLQQELEQQRCLLLARLRELEQQIWKERDEYITKVSEEVTRLGAQVKELEEKCQQPASELLQDVRVNQSRCEMKTFVSPEAISPDLVKKIRDFHRKILTLPEMMRMFSENLAHHLEIDSGVITLDPQTASRSLVLSEDRKSVRYTRQKKSLPDSPLRFDGLPAVLGFPGFSSGRHRWQVDLQLGDGGGCTVGVAGEGVRRKGEMGLSAEDGVWAVIISHQQCWASTSPGTDLPLSEIPRGVRVALDYEAGQVTLHNAQTQEPIFTFTASFSGKVFPFFAVWKKGSCLTLKG

- binding [1]: binds
B2: endogenous TRIM15 (protein, UniProt Q9C019 1-465)
chain: MPATPSLKVVHELPACTLCAGPLEDAVTIPCGHTFCRLCLPALSQMGAQSSGKILLCPLCQEEEQAETPMAPVPLGPLGETYCEEHGEKIYFFCENDAEFLCVFCREGPTHQAHTVGFLDEAIQPYRDRLRSRLEALSTERDEIEDVKCQEDQKLQVLLTQIESKKHQVETAFERLQQELEQQRCLLLARLRELEQQIWKERDEYITKVSEEVTRLGAQVKELEEKCQQPASELLQDVRVNQSRCEMKTFVSPEAISPDLVKKIRDFHRKILTLPEMMRMFSENLAHHLEIDSGVITLDPQTASRSLVLSEDRKSVRYTRQKKSLPDSPLRFDGLPAVLGFPGFSSGRHRWQVDLQLGDGGGCTVGVAGEGVRRKGEMGLSAEDGVWAVIISHQQCWASTSPGTDLPLSEIPRGVRVALDYEAGQVTLHNAQTQEPIFTFTASFSGKVFPFFAVWKKGSCLTLKG
